Record: PubChem BioAssay AID1159584 (Peter MacCallum Cancer Centre, 2016)
The deposit covers about 18,000 reagents; below is a random part of them. Further read-outs or replicates are left out here. No sequences are given here. The record does not give: the amount of reagent, the time to read-out.

Test: 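Genes whose loss is lethal only together with E-cadherin loss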 (primary screen)
Cell system: human MCF10A breast epithelial cells, parental and CDH1-null
Reagents: siRNA against human genes
Read-out: 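ATP luminescence (CellTiter-Glo) viability per line relative to mean mock wells over all plates, and the ratio of CDH1-null to parental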
Direction: CDH1-null / parental viability ratio: higher = CDH1-null cells survive relatively better than parental

CDH1-null / parental viability ratio, by gene knocked down and reagent
KIF6: SID152153703 0.74
ASTE1: SID134323041 1.12
RFXAP: SID134315463 1.04
AKR7L: SID152147081 1.18
OPRK1: SID135621055 1.65
PIM1: SID56478736 0.89
ABCF3: SID152155647 0.97
SEC22B: SID152148668 0.85
ZCCHC3: SID152149251 1.13
KAT8: SID134318900 0.94
BRD7: SID135623959 0.96
TM4SF1: SID135621972 0.72
NPFFR2: SID134311035 1.27
CAPN3: SID135621076 1
SMPD4: SID135624027 0.78
LIPI: SID152154252 1.05
FZD7: SID134310011 0.78
CHAC1: SID135622715 0.95
TM7SF3: SID134311175 1.01
P3H1: SID134310351 1.01
LARP4B: SID152149163 0.98
CBX8: SID134313232 0.99
GDPD1: SID135623654 1.08
SNAI2: SID134321323 0.88
GMFG: SID56479288 1.24
BCLAF1: SID135624048 1.1
CFAP47: SID134321936 1.08; SID152147146 0.92
LMTK2: SID152147902 1.07
KRTAP27-1: SID135625470 0.65
SEMA3F: SID135623366 1.05
UBE2U: SID134313837 1.14
PRB2: SID135625639 0.97
LPAR5: SID134310548 0.81
MYL10: SID134319600 0.86
RFC5: SID135621834 1.31
GABPB2: SID134320085 0.84
NPC2: SID134321166 1.01
KIR2DL1: SID135624029 0.81
ZNF107: SID152150249 1.12
KRTAP20-1: SID134322456 1.12
GRIP2: SID152151702 1.13
SMURF2: SID152154420 0.99
DDX55: SID135624629 1.07
TLK2: SID56479057 0.6
GID4: SID134321283 0.92
LARP6: SID134324923 1.23
CAMK4: SID56478933 0.77
LGALS9C: SID135625553 0.95
RACK1: SID152149338 0.67
MME: SID135620935 1.03
SOWAHA: SID152152473 0.62
KCND3: SID134311644 1.05
OR56A1: SID134329802 0.81
EHF: SID134316693 1.03
LPP: SID152156495 1.22
PRAMEF1: SID134318411 0.76
AP3S1: SID152150729 1.6
TEAD2: SID134316873 0.84
HMGB4: SID135623198 1.06
PBOV1: SID152154505 0.88
OR1L6: SID152154077 1.29
PXDC1: SID134323162 0.83
LRRC42: SID134322544 0.9
PAAF1: SID152154864 1.2
ERICH1: SID134326387 0.81
SLC10A3: SID152148051 1.18
GOLGA2P5: SID134318026 1.17
PALD1: SID152153152 1.15
ATP8B3: SID152150984 0.93
ERBB2: SID152153302 1.11
FAM241A: SID134319507 1.29
ZNF154: SID152152824 1.09
USP32: SID135621139 1.12
GALR2: SID134310287 0.74
RAG1: SID135621214 0.96
PARL: SID152155594 0.91
LMAN1L: SID135622647 0.79
ALDH6A1: SID134310246 1.07
PIGC: SID152150235 1.11
NEXMIF: SID152148999 1.02
MED12: SID152147641 1.03
ZNF780A: SID135624398 1.1
LATS2: SID152149461 0.91
SLC22A25: SID152149401 0.7
MYO1G: SID152155144 1.2
UNC45A: SID152151713 1.09

5 successive reagents already listed, quoted:
CDH1-null / parental viability ratio, by gene knocked down and reagent
EHF: SID134316693 1.03
LPP: SID152156495 1.22
PRAMEF1: SID134318411 0.76
AP3S1: SID152150729 1.6
TEAD2: SID134316873 0.84
